Test results as given in the supplement of paper PMC12889115.
The list shows a part of the results. Values are raw readings; no control value is given beside them.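 First-pass screen: polymyxin B was added at a level that permeabilizes the Salmonella outer membrane while sparing the inner membrane. DMSO wells, with and without polymyxin B, defined maximum growth. Because plates differed from one another, each plate's data were ranked separately and the compounds with the lowest OD600 were carried forward as hits.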

Test system: Salmonella enterica serovar Typhimurium SL1344
Test: bacterial growth OD600 after 18 h with compound and polymyxin B; higher = more bacterial growth (less inhibition)
Conditions: 50 µM, Mueller-Hinton broth

Which “bacterial growth OD600” value (polymyxin B 1 µg/mL) does the source give for `CC(=O)c1cccc(OCc2cc(C(=O)N(C)Cc3cc(C)[nH]n3)n[nH]2)c1` here?
The value was 0.998.

Which “bacterial growth OD600” value (polymyxin B 0.75 µg/mL) does the source give for `CN(CCCN1CCOCC1)C(=O)CC1(c2cccc(F)c2)CC(=O)N(Cc2cccnc2)C1=O` (configuration not stated) here?
The value was 0.79.

For `CCOc1cc(CN2CCC(C3(Cc4cccc(OC)c4)NC(=O)N(C)C3=O)CC2)ccc1O` (configuration not stated), which “bacterial growth OD600” value (polymyxin B 0.75 µg/mL) is on record?
The value was 0.798.

`C#Cc1ccc(CNC(C)c2cnc(-c3ccncc3)nc2C)cc1` (configuration not stated) was tested. Which “bacterial growth OD600” value (polymyxin B 0.75 µg/mL) did it give?
Its value is 0.8.

`COc1ccc(CCCN2C(=O)O[C@@H]3CN(S(=O)(=O)N(C)C)C[C@@H]32)cc1` was tested. Which “bacterial growth OD600” value (polymyxin B 1 µg/mL) did it give?
The value was 0.914.

Which “bacterial growth OD600” value (polymyxin B 0.75 µg/mL) does the source give for `COc1ccc(C(=O)NC2CC2)c(OC2CCN(Cc3cccs3)CC2)c1` here?
The value was 0.832.

`CN(C)C(=O)C1CCCN(C2CCN(Cc3ccccc3)CC2)C1` (configuration not stated) was tested. Which “bacterial growth OD600” value (polymyxin B 0.75 µg/mL) did it give?
Its value is 0.882.

With `COc1ccc(CN2CCCC(CCC(=O)NCc3ccc(OC)cc3OC)C2)c(O)c1` (configuration not stated) as the compound, how does the “bacterial growth OD600” value (polymyxin B 0.75 µg/mL) read?
The value was 0.72.

Which “bacterial growth OD600” value (polymyxin B 0.75 µg/mL) does the source give for `O=C(CC1=CCCCC1)N1CCC(C2CCN(Cc3cccnc3)CC2)C1` (configuration not stated) here?
The value was 1.01.

For `COc1ccc(C(=O)NC2CC2)c(OC2CCN(Cc3ccc(F)c(F)c3)CC2)c1`, which “bacterial growth OD600” value (polymyxin B 0.75 µg/mL) is on record?
The value was 0.658.

Which “bacterial growth OD600” value (polymyxin B 1 µg/mL) does the source give for `CN(CC1CCCN(CCc2ccc(Cl)cc2)C1)C(=O)CC(F)(F)F` (configuration not stated) here?
Its value is 0.877.

`O=C1N(CC2CCCCC2)CCCC1(O)CN1CCC(O)CC1` (configuration not stated) was tested. Which “bacterial growth OD600” value (polymyxin B 1 µg/mL) did it give?
The value was 0.989.

For `Cc1nc2cc(OCc3cc(C(=O)N4C[C@@H](C)O[C@@H](C)C4)no3)ccc2s1`, which “bacterial growth OD600” value (polymyxin B 1 µg/mL) is on record?
Its value is 1.41.

With `CCC1C(=O)NCCN1c1ccc(-c2nc(Cc3ccccc3)no2)cn1` (configuration not stated) as the compound, how does the “bacterial growth OD600” value (polymyxin B 0.75 µg/mL) read?
Its value is 0.66.

How did the “bacterial growth OD600” value (polymyxin B 0.75 µg/mL) turn out when `CC(C)Cc1cc(C(=O)N2CCC(C3(CCc4ccccc4)NC(=O)NC3=O)CC2)no1` (configuration not stated) was run?
Its value is 0.761.

`CC1CN(Cc2ccccc2O)Cc2cc(Cl)ccc2O1` (configuration not stated) was tested. Which “bacterial growth OD600” value (polymyxin B 0.75 µg/mL) did it give?
The value was 0.098.

For `COCCC(=O)N1CCC(C2CCN(c3ncccn3)CC2)C1` (configuration not stated), which “bacterial growth OD600” value (polymyxin B 0.75 µg/mL) is on record?
The value was 0.774.

How did the “bacterial growth OD600” value (polymyxin B 1 µg/mL) turn out when `Cc1cc(C(=O)N2CCC3(CCCN(Cc4ccccc4F)C3=O)C2)n[nH]1` (configuration not stated) was run?
Its value is 0.875.

How did the “bacterial growth OD600” value (polymyxin B 1 µg/mL) turn out when `COc1ccc(CN2CCC(n3nccc3NC(=O)C(OC)c3ccccc3)CC2)cc1` (configuration not stated) was run?
Its value is 1.02.

How did the “bacterial growth OD600” value (polymyxin B 1 µg/mL) turn out when `Fc1ccc(C2CCCCN2Cc2nc(CCc3ccccc3)no2)cc1` (configuration not stated) was run?
The value was 0.841.

Which “bacterial growth OD600” value (polymyxin B 1 µg/mL) does the source give for `Cc1cc(C)n(Cc2cc(C(=O)N3CCCCC3c3cccnc3)n[nH]2)n1` (configuration not stated) here?
The value was 0.999.

With `COc1ccccc1C1CCCN1C(=O)Cn1nnnc1CN1CCOCC1` (configuration not stated) as the compound, how does the “bacterial growth OD600” value (polymyxin B 1 µg/mL) read?
Its value is 0.721.

`CC(=O)NCCC1CCCCN1Cc1nc(Cc2cccc(F)c2)no1` (configuration not stated) was tested. Which “bacterial growth OD600” value (polymyxin B 0.75 µg/mL) did it give?
The value was 0.796.

How did the “bacterial growth OD600” value (polymyxin B 0.75 µg/mL) turn out when `CN(C)C1(CNC(=O)c2coc(COc3cccc(F)c3F)n2)CCCCC1` was run?
Its value is 0.779.

`COC1CCCN(C(=O)c2coc(CN3CCN(Cc4ccccc4)CC3)n2)C1` (configuration not stated) was tested. Which “bacterial growth OD600” value (polymyxin B 1 µg/mL) did it give?
Its value is 0.805.

`CC(=O)N1CCC(N2CCCC(CCc3ccccc3C)C2)CC1` (configuration not stated) was tested. Which “bacterial growth OD600” value (polymyxin B 0.75 µg/mL) did it give?
The value was 0.809.

For `COc1ccc(CC2(CCC(=O)NC3CCCc4ccccc43)CCC(=O)N2)c2ccccc12` (configuration not stated), which “bacterial growth OD600” value (polymyxin B 0.75 µg/mL) is on record?
The value was 0.025.

How did the “bacterial growth OD600” value (polymyxin B 1 µg/mL) turn out when `CSCCNC(=O)CCc1nnc(Cc2cccc(C(F)(F)F)c2)o1` was run?
The value was 0.852.

How did the “bacterial growth OD600” value (polymyxin B 0.75 µg/mL) turn out when `COc1ccccc1-c1cc2c(c(OC)c1)OCCN(Cc1cc(F)ccc1F)C2` was run?
Its value is 0.674.

Which “bacterial growth OD600” value (polymyxin B 0.75 µg/mL) does the source give for `CC(=O)N1CCN(c2ncccc2CNCC2CC=CCC2)CC1` (configuration not stated) here?
The value was 0.816.

For `O=C(CCc1ccccc1)Nc1ccc(N2CCC(NCCc3cccnc3)CC2)cc1`, which “bacterial growth OD600” value (polymyxin B 0.75 µg/mL) is on record?
Its value is 1.01.

Which “bacterial growth OD600” value (polymyxin B 0.75 µg/mL) does the source give for `COc1cccc(CC(C2CCN(C(=O)/C=C/c3cccnc3)CC2)N(C)C(=O)c2ccsc2)c1` (configuration not stated) here?
Its value is 0.935.
